Data taken from PubChem BioAssay AID434947 (Broad Institute, 2010).
Screen size: about 2,200 compounds; about 15 (0.7%) were called active.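 The calls were made as follows: active = fitted half-maximal concentration for loss of luminescence signal no more than a set limit of log units above the top tested concentration; inconclusive = flat fit with 30 to 70% signal loss, or invalid fit; inactive = half-maximal concentration above that set limit.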 Some of the results follow.

assay: ADP-Glo luciferase signal interference – biochemical, luminescence, cell-free, homogeneous, artefact control for GSK3beta inhibitor project, dose response (AID 434947); details: Cell-free ADP-Glo reagents, 5 uM ADP;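 also: kinase-free counter screen of ADP-Glo detection reagents for GSK3beta hits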

EC50, inactive:
Clc1cccc(Nc2nc(-c3ccncc3)nc3ccccc23)c1 > 30 µM, Cc1cccc(COc2ccc(/C=C3/C(=O)N(C)C(=S)N3C)cc2)c1 > 30 µM, C=C(Cl)COc1ccc2c(CCCC)cc(=O)oc2c1 > 30 µM, Cc1cccc(Nc2nc(N)c([N+](=O)[O-])c(NCc3ccco3)n2)c1 > 30 µM, O=C(Nc1cccc(NC(=O)c2ccc3c(c2)OCO3)c1)c1ccccc1 > 30 µM, Cc1ccc2c(c1)N(C(=O)CCC(=O)NCc1ccccc1)CC(C)O2 (centres undefined) > 30 µM, O=C1CCCC2=C1C(c1cccs1)n1nc(SCc3ccccc3)nc1N2 (centres undefined) > 30 µM, COC(=O)CSc1ncnc2c1sc1nc(N3CCOCC3)c3c(c12)CCCC3 > 30 µM, CCCn1nc(NC(=O)c2cccs2)c2cc3cc(C)ccc3nc21 > 30 µM, COc1ccc(CN(CC(=O)NCc2ccccc2)C(=O)CCC(=O)Nc2ccccn2)cc1 > 30 µM, CC1(C)CC(=O)C=C(Nc2cccc(Cl)c2Cl)C1 > 30 µM, O=[N+]([O-])c1cc(Cl)ccc1N1CCCC1 > 30 µM, CCCc1cc(=O)oc2cc(C)c(CN3CCCC3)c(O)c12 > 30 µM, COc1ccc(C(=O)c2coc3ccc(O)c(CN4CCCCC4)c23)cc1 > 30 µM, CCCNc1nc(N)nc(-c2cc(Cl)ccc2OC)n1 > 30 µM, Cc1ccccc1CSc1nnc([C@@H]2CCCN2)o1 > 30 µM, O=C(O)c1cc(C2CC2)nc2ccccc12 > 30 µM, NS(=O)(=O)c1cc(C(=O)N=Nc2c(O)[nH]c3ccccc23)ccc1Cl > 30 µM, COc1cccc(C(=O)CSc2nccn2C)c1 > 30 µM, O=C(N/N=C/c1ccc2nccnc2c1)c1ccncc1 > 30 µM, CCCCn1nc(NC(=O)c2cccs2)c2cc3ccccc3nc21 > 30 µM, COc1cc(/C=C2/SC(=Nc3ccc(O)cc3)NC2=O)ccc1O > 30 µM, COc1ccc(CC(=O)Nc2nc(-c3ccccc3)c(C(C)=O)s2)cc1OC > 30 µM, CCCSCCCNC(=O)Cn1nc(CC)n2c(cc3c(OC)cccc32)c1=O > 30 µM, COc1ccc(NC(=O)Nc2ccccn2)cc1OC > 30 µM, CCOC(=O)C1=C(C)Nc2ncnn2C1/C=C/c1ccccc1 (centres undefined) > 30 µM, CC(C)(C)NC(=O)NC(=O)COc1ccc(Br)cc1Br > 30 µM, CCN(CC)Cc1c(C(=O)N/N=C/c2ccccn2)nnn1-c1nonc1N > 30 µM, CCOc1ccc(CNC(=O)C2CCN(c3nnc(C)c4c(C)n(-c5ccc(C)cc5)nc34)CC2)cc1 > 30 µM, O=c1c(O[C@@H]2O[C@H](CO)[C@@H](O)[C@H](O)[C@H]2O)c(-c2ccc(O)c(O)c2)oc2cc(O)cc(O)c12 > 30 µM, CCN1CCN(C(=O)c2ccc3c(c2)N(Cc2ccc(F)cc2)C(=O)c2ccccc2S3=O)CC1 (centres undefined) > 30 µM, Fc1ccc(CSc2nnc(-c3cccnc3)o2)cc1 > 30 µM, O=Cc1cn(CCC(=O)O)nc1-c1cccc(Br)c1 > 30 µM, CC(C)N1CCc2c(sc(NC(=O)CCc3ccccc3)c2C(N)=O)C1 > 30 µM, Nc1nnc(CC(=O)N/N=C/c2ccccc2OCc2ccc(F)cc2)s1 > 30 µM, CCOC(=O)c1cnc2ccccc2c1Nc1ccc(C(=O)O)cc1 > 30 µM, Cc1ccccc1CSc1nnc(-c2ccncc2)o1 > 30 µM, O=C(O)CCn1cc(/C=N/O)c(-c2cccc([N+](=O)[O-])c2)n1 > 30 µM, Clc1ccc(/C=N/Nc2ncnc3nc[nH]c23)cc1 > 30 µM, CC(=O)N(\C=C/C=C/C=C1\Sc2ccccc2C1=O)c1ccccc1 > 30 µM, COc1ccc(C(=O)c2coc3ccc(O)c(CN4CCCC4)c23)cc1 > 30 µM, Nc1nonc1-n1nnc(C(=O)N/N=C\c2ccncc2)c1CN1CCCCC1 > 30 µM, CC1(C)CC(=O)C(C2(O)C(=O)Nc3ccccc32)CO1 (centres undefined) > 30 µM, CSc1nc(N)c2c3c(sc2n1)CN(C)CC3 > 30 µM, O=[N+]([O-])c1ccc2ccn(C3OCC(O)C(O)C3O)c2c1 (centres undefined) > 30 µM, O=C(OCCCCOC(=O)c1ccccc1)c1ccccc1 > 30 µM, Cc1cc(C)cc(NC(=O)NCC2CCN(Cc3cc(C)ccc3C)CC2)c1 > 30 µM, O=C(Nc1ccccc1C(=O)O)c1ncn[nH]1 > 30 µM, CN(C)CCCNc1nc(N)c([N+](=O)[O-])c(NC2CCCCC2)n1 > 30 µM, CCNc1nc(N)c(C(=O)C23CC4CC(CC(C4)C2)C3)s1 > 30 µM, COc1cccc2c1cc1c(=O)n(CC(=O)NCCCN3CCN(C)CC3)nc(C)n12 > 30 µM, O=C1Nc2cc(C(=O)NCC3CCCO3)ccc2S/C1=C/c1ccccc1F (centres undefined) > 30 µM, O=C(Nc1cccc2c1C(=O)NC2=O)c1ccc(N2C(=O)CCC2=O)cc1 > 30 µM, Cc1cccc(-n2c(=O)c3c4c(sc3n3c(=S)[nH]nc23)CCC4)c1 > 30 µM, O=C(NCC(c1ccco1)N1CCOCC1)c1cccc(Cl)c1 (centres undefined) > 30 µM, CC1CCN(Cc2c(C(=O)N/N=C/c3ccccc3O)nnn2-c2nonc2N)CC1 > 30 µM, O=[N+]([O-])c1cc(/C=N/O)ccc1Oc1ccccc1Cl > 30 µM, Cc1ccc(C2C3=C(CC(C)(C)CC3=O)Nc3[nH]c(=S)[nH]c(=O)c32)cc1 (centres undefined) > 30 µM, CC1CCc2c(sc(Nc3nc4c(F)cccc4s3)c2C(N)=O)C1 (centres undefined) > 30 µM, CC(=O)Nc1nnc(CSCc2ccc(F)cc2)s1 > 30 µM, Cc1cc(N2CCC(C)CC2)nc(-c2ccccc2O)n1 > 30 µM, O=Cc1ccc(N2CCCC2)c([N+](=O)[O-])c1 > 30 µM, COC(=O)c1ccc(NC(=O)CCN2CCN(Cc3ccccc3)CC2)cc1 > 30 µM, O=C(CCc1ccccc1)Nc1ncc([N+](=O)[O-])s1 > 30 µM, CN(C)CC(=O)N1c2ccccc2Sc2ccc(Cl)cc21 > 30 µM, CCCC1=C(C(=O)OCC)C(c2sccc2C)n2ncnc2N1 (centres undefined) > 30 µM, COc1ccc(-n2c(=O)c3c4c(sc3n3c(=S)[nH]nc23)CCCC4)cc1 > 30 µM, O=S1(=O)CC2SC(=S)N(c3ccccc3)C2C1 (centres undefined) > 30 µM, CCCc1cc(=O)[nH]c(SCCOc2ccc(OCC)cc2)n1 > 30 µM, CN1CCN(CCCNC(=O)Nc2ccc([N+](=O)[O-])cc2)CC1 > 30 µM, Cc1ccc(C(=O)N/N=C\c2ccc(-c3ccc(Cl)c(Cl)c3)o2)cn1 > 30 µM, CCOc1ccccc1N1CCN(S(=O)(=O)c2cc(C)ccc2OC)CC1 > 30 µM, Cc1onc(-c2ccccc2)c1C(=O)n1cccn1 > 30 µM, O=C(Nc1ccccn1)C(=O)Nc1ccccn1 > 30 µM, O=C(O)/C=C/c1cn(-c2ccccc2)nc1-c1cccc([N+](=O)[O-])c1 > 30 µM, CC(=O)Nc1cccc(Nc2nc(-c3ccccc3)nc3ccccc23)c1 > 30 µM, COc1ccc(CNCCC(c2ccc(F)cc2)c2ccc(OC)cc2)cc1 (centres undefined) > 30 µM, COC(=O)c1c(N)c(C#N)c2n1CCCCC2 > 30 µM, Nc1ncnc2c1ncn2C1OC(COP(=O)(O)O)C(O)C1O (centres undefined) > 30 µM, CCOC(=O)c1c(C)[nH]c(C)c1C(=O)CN1C(=O)NC(CC(C)C)C1=O (centres undefined) > 30 µM, CSc1nc(NCC(C)C)c2c3c(sc2n1)CN(C)CC3 > 30 µM, CC1CCN(c2oc(-c3ccccc3Cl)nc2C#N)CC1 > 30 µM, COc1cc(/C=N/NC(=O)c2sc(N)c(C#N)c2C)ccc1O > 30 µM, CCn1c(/C=C/N(C(C)=O)c2ccccc2)[n+](CC)c2ccc(Cl)cc21 > 30 µM, COc1cc(C(=O)OCC(=O)NC(N)=O)cc(CN2C(=O)c3ccccc3C2=O)c1OC > 30 µM, CN1CCN(c2ccccc2NC(=O)c2ccc(Br)o2)CC1 > 30 µM, Cc1ccc(SCCc2ccc(C)nc2)cc1 > 30 µM, O=C(CN1C(=O)COc2ccccc21)Nc1ccccc1F > 30 µM, O=[N+]([O-])c1cc(/C=N/n2cnnc2)ccc1N1CCCC1 > 30 µM, CCNc1ccc(S(=O)(=O)N(C)C)cc1NCC(=O)Nc1ccc(Br)cc1F > 30 µM, O=C(N1CCN(c2ccccc2F)CC1)C12CC3CC(CC(C3)C1)C2 > 30 µM, CCCCc1cc(=O)oc2cc(C)cc(O)c12 > 30 µM, CCN(CC)C(=O)COC(=O)c1ccc(O)cc1 > 30 µM, Nc1nc(NCCN2CCOCC2)nc(NCc2ccccc2)c1[N+](=O)[O-] > 30 µM
